The source of these data is publication PMC7179242.

By UniProt entry, the sequences of proteins in these tests, tags left out. Where a name states a change or a piece, a line headed by the entry shows the natural chain unless it says otherwise.
UniProt P40160: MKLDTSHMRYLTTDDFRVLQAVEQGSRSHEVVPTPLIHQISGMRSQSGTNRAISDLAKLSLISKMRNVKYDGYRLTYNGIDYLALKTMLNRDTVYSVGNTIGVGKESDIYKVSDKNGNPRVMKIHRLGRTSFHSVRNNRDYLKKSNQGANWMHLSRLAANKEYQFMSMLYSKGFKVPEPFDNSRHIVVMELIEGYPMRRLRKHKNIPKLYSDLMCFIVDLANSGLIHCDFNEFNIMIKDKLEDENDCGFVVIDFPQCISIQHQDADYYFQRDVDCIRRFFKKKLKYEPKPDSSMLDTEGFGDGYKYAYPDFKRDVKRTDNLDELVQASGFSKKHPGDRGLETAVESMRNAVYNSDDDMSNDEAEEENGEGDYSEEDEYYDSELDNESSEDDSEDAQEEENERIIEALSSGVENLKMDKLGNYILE
UniProt P39938: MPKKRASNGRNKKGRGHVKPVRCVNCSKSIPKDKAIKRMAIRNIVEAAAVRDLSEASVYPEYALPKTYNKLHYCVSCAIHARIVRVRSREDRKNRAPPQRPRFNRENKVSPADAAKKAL

These are yes or no findings as the source states them, for the method shown. In cells and extracts the contact can be indirect. These calls come from enrichment with a bait or labelling near it, and not all partners need be listed. For part of these data: A no says only that the protein was not detected with the bait.

Test [1] addresses T1, Tsr1-FPZ (S. cerevisiae) (UniProt Q07381).
T1 sequence (chain, phosphorylated on T354 or S358 (100% of the peptide)): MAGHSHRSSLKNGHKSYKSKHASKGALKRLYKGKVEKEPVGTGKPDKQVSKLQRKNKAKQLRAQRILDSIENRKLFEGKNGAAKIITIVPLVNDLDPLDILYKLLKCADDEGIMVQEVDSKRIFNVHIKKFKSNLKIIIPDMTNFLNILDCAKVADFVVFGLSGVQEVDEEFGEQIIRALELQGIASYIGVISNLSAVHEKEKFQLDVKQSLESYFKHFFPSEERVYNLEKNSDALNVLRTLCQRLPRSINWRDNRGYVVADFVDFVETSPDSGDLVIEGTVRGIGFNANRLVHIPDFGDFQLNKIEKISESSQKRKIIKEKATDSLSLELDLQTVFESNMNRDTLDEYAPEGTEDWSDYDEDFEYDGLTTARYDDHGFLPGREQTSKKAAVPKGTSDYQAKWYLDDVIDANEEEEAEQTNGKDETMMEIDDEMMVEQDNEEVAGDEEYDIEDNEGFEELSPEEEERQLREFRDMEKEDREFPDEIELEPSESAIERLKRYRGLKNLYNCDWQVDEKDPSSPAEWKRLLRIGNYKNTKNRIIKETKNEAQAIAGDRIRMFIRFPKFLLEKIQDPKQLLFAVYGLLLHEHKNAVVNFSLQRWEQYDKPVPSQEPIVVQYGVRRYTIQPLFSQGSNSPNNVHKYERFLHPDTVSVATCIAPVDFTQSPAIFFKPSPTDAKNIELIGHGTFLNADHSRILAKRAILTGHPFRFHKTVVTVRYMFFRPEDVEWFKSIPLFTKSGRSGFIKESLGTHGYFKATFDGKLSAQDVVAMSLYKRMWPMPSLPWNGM
As to the kind of experiment: affinity purification with mass spectrometry; Tsr1-FPZ as bait from yeast lysate; IgG Sepharose, PreScission elution, anti-Flag M2 gel, Flag peptide elution, 10%-30% sucrose gradient; fraction 8 (free pre-40S particles, with 20S pre-rRNA) analysed by label-free bottom-up nanoLC-MS/MS.

The target in test [2] is T2, Tsr1-FPZ (S. cerevisiae), Q07381.
T2 chain: T1 sequence (chain, phosphorylated on T354 or S358 (100% of the peptide))
The description is as above. The conditions noted are these: remark: other sources report otherwise.

As to Rio2 (from UniProt P40160 1-425), the binding entry in test [1] was “binds”. Take Rps26 (from UniProt P39938): in test [1], the binding result was “no binding”. Consider “Rps31 (S. cerevisiae (endogenous in BY4742))”, for which the binding entry in test [1] was “no binding”.

B1: Enp1 (protein, UniProt P38333 1-483)
chain: MARASSTKARKQRHDPLLKDLDAAQGTLKKINKKKLAQNDAANHDAANEEDGYIDSKASRKILQLAKEQQDEIEGEELAESERNKQFEARFTTMSYDDEDEDEDEDEEAFGEDISDFEPEGDYKEEEEIVEIDEEDAAMFEQYFKKSDDFNSLSGSYNLADKIMASIREKESQVEDMQDDEPLANEQNTSRGNISSGLKSGEGVALPEKVIKAYTTVGSILKTWTHGKLPKLFKVIPSLRNWQDVIYVTNPEEWSPHVVYEATKLFVSNLTAKESQKFINLILLERFRDNIETSEDHSLNYHIYRAVKKSLYKPSAFFKGFLFPLVETGCNVREATIAGSVLAKVSVPALHSSAALSYLLRLPFSPPTTVFIKILLDKKYALPYQTVDDCVYYFMRFRILDDGSNGEDATRVLPVIWHKAFLTFAQRYKNDITQDQRDFLLETVRQRGHKDIGPEIRRELLAGASREFVDPQEANDDLMIDVN
For the molecule B1, in test [1], the binding entry is given as “binds”.

B2: Rps3, P05750 1-240 (protein)
chain: MVALISKKRKLVADGVFYAELNEFFTRELAEEGYSGVEVRVTPTKTEVIIRATRTQDVLGENGRRINELTLLVQKRFKYAPGTIVLYAERVQDRGLSAVAQAESMKFKLLNGLAIRRAAYGVVRYVMESGAKGCEVVVSGKLRAARAKAMKFADGFLIHSGQPVNDFIDTATRHVLMRQGVLGIKVKIMRDPAKSRTGPKALPDAVTIIEPKEEEPILAPSVKDYRPAEETEAQAEPVEA
modifications: here or on the partner: phosphorylated on T354 or S358 (100% of the peptide)
Consider B2, for which the binding entry in test [2] is “binds”.

B3: Nob1, Q08444 1-459 (protein)
chain: MTENQTAHVRALILDATPLITQSYTHYQNYAQSFYTTPTVFQEIKDAQARKNLEIWQSLGTLKLVHPSENSIAKVSTFAKLTGDYSVLSANDLHILALTYELEIKLNNGDWRLRKKPGDALDASKADVGTDGKQKLTEDNKKEEDSESVPKKKNKRRGGKKQKAKREAREAREAENANLELESKAEEHVEEAGSKEQICNDENIKESSDLNEVFEDADDDGDWITPENLTEAIIKDSGEDTTGSLGVEASEEDRHVALNRPENQVALATGDFAVQNVALQMNLNLMNFMSGLKIKRIRNYMLRCHACFKIFPLPKDGKPKHFCASCGGQGTLLRCAVSVDSRTGNVTPHLKSNFQWNNRGNRYSVASPLSKNSQKRYGKKGHVHSKPQENVILREDQKEYEKVIKQEEWTRRHNEKILNNWIGGGSADNYISPFAITGLKQHNVRIGKGRYVNSSKRRS
modifications: here or on the partner: phosphorylated on T354 or S358 (100% of the peptide)
In the case of B3, the binding entry in test [2] is reported as “binds”.
